# The campaign covered roughly 580,000 compounds. About 6,100 (1.1%) were called active. The inconclusive results got no clear call from the source; some entries with a clear call stand among them for comparison. The call rests on the fitted dose curve; in most records, active means well fitted inhibition curve with a large enough effect; inconclusive means small, poorly fitted or top-dose-only effect, or another doubt; inactive means no such curve, though single readings can be large or run the other way. Potencies beside an inconclusive call are fits to weak or partial responses and may not hold up.
# The chains behind the UniProt entries cited, without tags or fusion partners. Where a name states a change or a piece, a line headed by the entry shows the natural chain unless it says otherwise.
# UniProt P18054: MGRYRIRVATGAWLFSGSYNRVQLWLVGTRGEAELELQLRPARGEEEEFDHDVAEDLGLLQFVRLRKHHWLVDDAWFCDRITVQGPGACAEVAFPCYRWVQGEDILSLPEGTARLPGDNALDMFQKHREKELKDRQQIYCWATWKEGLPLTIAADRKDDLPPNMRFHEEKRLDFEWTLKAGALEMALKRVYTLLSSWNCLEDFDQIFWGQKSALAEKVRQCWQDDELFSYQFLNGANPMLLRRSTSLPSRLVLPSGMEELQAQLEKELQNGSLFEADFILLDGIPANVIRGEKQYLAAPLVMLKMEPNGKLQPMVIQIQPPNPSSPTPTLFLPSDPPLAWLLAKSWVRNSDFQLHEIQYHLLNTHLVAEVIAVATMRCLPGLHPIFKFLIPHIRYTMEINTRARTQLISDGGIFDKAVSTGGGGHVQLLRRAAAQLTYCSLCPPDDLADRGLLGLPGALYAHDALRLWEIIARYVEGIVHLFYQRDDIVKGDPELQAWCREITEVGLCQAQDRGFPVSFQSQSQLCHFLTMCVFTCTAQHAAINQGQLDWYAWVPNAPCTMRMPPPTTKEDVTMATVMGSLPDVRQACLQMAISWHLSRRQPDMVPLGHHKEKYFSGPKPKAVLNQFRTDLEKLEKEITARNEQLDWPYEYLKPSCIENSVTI
# Molecular target: Polyunsaturated fatty acid lipoxygenase ALOX12 (Homo sapiens) (UniProt P18054)
# Assay: Primary qHTS assay for inhibitors of human arachidonate 12S-lipoxygenase (ALOX12): Round 2
# Details: purified 12hLO, xylenol orange hydroperoxide absorbance; series mostly up to 108 µM
# Procedure, shortened: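 Purified human 12hLO (150 nM final) in 25 mM Hepes, 0.01% Triton X-100, pH 7.0 was preincubated 15 min at room temperature with compound. Then 40 uM arachidonic acid was added, 30 min. Hydroperoxide was read by Fe-XO absorbance ratio 573/405 nm.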
# Potency means the concentration at half of the fitted maximal effect.
row,SMILES,Potency
1,CCOC(=O)c1cccc(Nc2nc3ccccc3nc2NS(=O)(=O)c2cccc(C)c2)c1,"inconclusive: 0.316 µM [inhibitor, full curve, poor fit]"
2,CC(C)CCN(CCC(C)C)C(CO)(CO)CO,"inconclusive: 17.8 µM [inhibitor, partial curve]"
3,COc1cc(NC(=O)c2cc(OC)c(OC)c(OC)c2)cc(-n2cnnn2)c1,"inconclusive: 35.5 µM [inhibitor, partial curve, poor fit]"
4,C[C@@H]1CN(Cc2cc(C(N)=O)oc2C(C)(C)C)CC[C@@]1(O)C1CCC1,inactive
5,Cn1c(NC(=O)c2ccc(Br)o2)cc(=O)n(C)c1=O,"inconclusive: 50.1 µM [inhibitor, partial curve, poor fit]"
6,Cc1ccc(C(=O)NC2CC(c3nnc(CN(C)C)n3C)C2)s1 (configuration not stated),inactive
7,COc1ccc(OCCC(=O)NCc2ccccc2)cc1,"inconclusive: 8.91 µM [inhibitor, partial curve, poor fit]"
8,CN1CCC(=C2c3ccccc3C=Cc3ccccc32)CC1,"inconclusive: 39.8 µM [inhibitor, partial curve, poor fit]"
9,Cc1c(Cl)cccc1NC(=S)NCCc1ccc(C(F)(F)F)cc1,active: 39.8 µM
10,CCOc1ccc(C2c3cc(OC)c(OC)cc3CC(=O)N2c2ccc(C(=O)OC)cc2)cc1 (configuration not stated),inactive
11,COc1ccc2ccccc2c1C(=O)/C=C\c1ccoc1,"inconclusive: 100 µM [inhibitor, single point]"
12,CCCCn1c(N)c(N(CCOC)C(=O)c2ccc(N3C(=O)CCC3=O)cc2)c(=O)[nH]c1=O,"inconclusive: 39.8 µM [inhibitor, partial curve, poor fit]"
13,COc1cc(/C=C(/C#N)C(=O)c2ccccc2)cc(Cl)c1OC(C)C,"inconclusive: 39.8 µM [inhibitor, partial curve, poor fit]"
14,CC1(C(=O)Nc2cccc(C#N)c2)CCN1C(=O)Cc1ccc(-c2ccccc2)cc1 (configuration not stated),"inconclusive: 0.178 µM [inhibitor, single point]"
15,CCOC(=O)c1ccc(C(=S)N2CCCC2)cc1,"inconclusive: 31.6 µM [inhibitor, partial curve]"
16,CCN(CC)CCCSc1nc2ccccc2s1,"inconclusive: 1.78 µM [inhibitor, full curve, poor fit]"
17,Cc1ccc(NC(=O)C2CCN(c3nc4ccccc4[nH]3)CC2)cc1Cl,"inconclusive: 56.2 µM [inhibitor, partial curve, poor fit]"
18,CC(C)N1CCN(c2ccncc2S(=O)(=O)N2CCN(C)CC2)CC1,"inconclusive: 126 µM [inhibitor, partial curve, poor fit]"
19,COc1ccc(N(CC(=O)NCc2ccc(C)cc2)S(=O)(=O)c2c(C)nn(C)c2C)cc1,"inconclusive: 50.1 µM [inhibitor, partial curve, poor fit]"
20,CC(C)(C)C1CCc2nc(Cl)c(C#N)c(C#N)c2C1 (configuration not stated),"inconclusive: 89.1 µM [inhibitor, single point]"
21,Cc1ccc(NC(=O)Cn2nc3n(c2=O)CCCC3)cc1,inactive

# Ordered by length of the SMILES (ascending): 17 of the compounds above.
row,SMILES,Potency
16,CCN(CC)CCCSc1nc2ccccc2s1,"inconclusive: 1.78 µM [inhibitor, full curve, poor fit]"
2,CC(C)CCN(CCC(C)C)C(CO)(CO)CO,"inconclusive: 17.8 µM [inhibitor, partial curve]"
15,CCOC(=O)c1ccc(C(=S)N2CCCC2)cc1,"inconclusive: 31.6 µM [inhibitor, partial curve]"
11,COc1ccc2ccccc2c1C(=O)/C=C\c1ccoc1,"inconclusive: 100 µM [inhibitor, single point]"
8,CN1CCC(=C2c3ccccc3C=Cc3ccccc32)CC1,"inconclusive: 39.8 µM [inhibitor, partial curve, poor fit]"
21,Cc1ccc(NC(=O)Cn2nc3n(c2=O)CCCC3)cc1,inactive
20,CC(C)(C)C1CCc2nc(Cl)c(C#N)c(C#N)c2C1 (configuration not stated),"inconclusive: 89.1 µM [inhibitor, single point]"
5,Cn1c(NC(=O)c2ccc(Br)o2)cc(=O)n(C)c1=O,"inconclusive: 50.1 µM [inhibitor, partial curve, poor fit]"
9,Cc1c(Cl)cccc1NC(=S)NCCc1ccc(C(F)(F)F)cc1,active: 39.8 µM
18,CC(C)N1CCN(c2ccncc2S(=O)(=O)N2CCN(C)CC2)CC1,"inconclusive: 126 µM [inhibitor, partial curve, poor fit]"
13,COc1cc(/C=C(/C#N)C(=O)c2ccccc2)cc(Cl)c1OC(C)C,"inconclusive: 39.8 µM [inhibitor, partial curve, poor fit]"
3,COc1cc(NC(=O)c2cc(OC)c(OC)c(OC)c2)cc(-n2cnnn2)c1,"inconclusive: 35.5 µM [inhibitor, partial curve, poor fit]"
14,CC1(C(=O)Nc2cccc(C#N)c2)CCN1C(=O)Cc1ccc(-c2ccccc2)cc1 (configuration not stated),"inconclusive: 0.178 µM [inhibitor, single point]"
1,CCOC(=O)c1cccc(Nc2nc3ccccc3nc2NS(=O)(=O)c2cccc(C)c2)c1,"inconclusive: 0.316 µM [inhibitor, full curve, poor fit]"
10,CCOc1ccc(C2c3cc(OC)c(OC)cc3CC(=O)N2c2ccc(C(=O)OC)cc2)cc1 (configuration not stated),inactive
19,COc1ccc(N(CC(=O)NCc2ccc(C)cc2)S(=O)(=O)c2c(C)nn(C)c2C)cc1,"inconclusive: 50.1 µM [inhibitor, partial curve, poor fit]"
12,CCCCn1c(N)c(N(CCOC)C(=O)c2ccc(N3C(=O)CCC3=O)cc2)c(=O)[nH]c1=O,"inconclusive: 39.8 µM [inhibitor, partial curve, poor fit]"

# (listing goes on)

row,SMILES,Potency
1,CCC[C@H]1[C@@H](NC(=O)Nc2ccc(C(F)(F)F)cc2)CC[C@@]23CCCN2C(=O)CCC[C@@H]13,"inconclusive: 44.7 µM [inhibitor, partial curve, poor fit]"
2,Cc1ccc(-c2cnc(CCC(=O)N3CCN(CC(=O)Nc4cccc(F)c4)CC3)o2)cc1,"inconclusive: 44.7 µM [inhibitor, partial curve, poor fit]"
3,CN1Cc2c(cc(N3CCOCC3)nc2-c2cnn(C)c2)C1=O,"inconclusive: 44.7 µM [inhibitor, partial curve, poor fit]"
4,O=C(Nc1ccc(S(=O)(=O)NCc2ccco2)cc1)c1ccc2ccccc2n1,"inconclusive: 3.55 µM [inhibitor, full curve, poor fit]"
5,COc1cc(/C=C2/C(=O)N(c3ccc(C(=O)O)cc3)N=C2C)cc(OC)c1O,inactive
6,CCN1/C(=C2/SC(=S)N(C)C2=O)C=Cc2cc(C)ccc21,"inconclusive: 25.1 µM [inhibitor, partial curve, poor fit]"
7,O=C(NCCCN1CCOCC1)c1cc(-c2ccc(Br)cc2)nc2ccccc12,"inconclusive: 44.7 µM [inhibitor, partial curve, poor fit]"
8,CCc1ccc2c(CN3CCc4ccccc43)cc(=O)oc2c1,"inconclusive: 39.8 µM [inhibitor, partial curve]"
9,CN1C(=O)C2CCCCN2c2ccc(C(=O)NCc3ccccc3Br)cc21 (configuration not stated),"inconclusive: 112 µM [inhibitor, partial curve, poor fit]"
10,O=C1NCCCCCN(C(=O)c2ccco2)[C@H]2CCC[C@@H]12,inactive
11,Cc1ccccc1C(=O)Nc1cccc(-c2nnc(SCC(=O)N3CCc4ccccc43)n2C)c1,"inconclusive: 50.1 µM [inhibitor, partial curve, poor fit]"
12,CC(C)(C)C1CCc2c(sc3c2C(=O)NC(c2ccco2)N3)C1 (configuration not stated),"inconclusive: 11.2 µM [inhibitor, full curve]"
13,c1csc(-c2nc3ccccc3s2)c1,"inconclusive: 35.5 µM [inhibitor, partial curve, poor fit]"
14,CCC(Oc1ccc(F)cc1)C(=O)Nc1cc(C(C)(C)C)on1 (configuration not stated),inactive
15,CCCCn1nc(C(=O)Nc2ccc(OCC#N)cc2)c2ccccc2c1=O,"inconclusive: 2.24 µM [inhibitor, partial curve, poor fit]"
16,O=c1ccc(/C=C/c2ccccc2)nn1Cc1ccc(F)cc1,"inconclusive: 100 µM [inhibitor, partial curve, poor fit]"
17,O=C1NC[C@H](c2ccccc2)OC(=O)[C@H](Cc2ccc(F)cc2)C/C=C\C[C@H]1CC(=O)N(CCO)Cc1ccccc1,"inconclusive: 2 µM [inhibitor, full curve, poor fit]"
18,Cc1ccc(NS(=O)(=O)c2c(C(=O)N3CCCCCC3)c(C)n(C)c2C)cc1F,inactive
19,NN(Cc1ccccc1)C(=S)Nc1ccc(Cl)c(Cl)c1,"inconclusive: 35.5 µM [inhibitor, full curve, poor fit]"
20,CC(C)c1ccc(N2C(=O)/C(=C/N(C)C)SC2=S)cc1,"inconclusive: 89.1 µM [inhibitor, partial curve, poor fit]"
21,CCc1cn(C[C@H](NC(=O)C2CCCC2)C(=O)O)c(=O)[nH]c1=O,"inconclusive: 35.5 µM [inhibitor, single point]"

row,SMILES,Potency
1,COC(=O)c1ccc(COc2ccccc2Br)cc1,inactive
2,CN1CCN(C(=O)c2cc3c(c(-c4cccc(Br)c4)n2)[C@@H](CCO)N(S(=O)C(C)(C)C)C3)CC1 (some centres not stated),"inconclusive: 39.8 µM [inhibitor, partial curve, poor fit]"
3,Clc1nc(Cl)nc(NCCC2=CCCCC2)n1,"inconclusive: 39.8 µM [inhibitor, partial curve, poor fit]"
4,COc1ccc(NS(=O)(=O)c2ccc(C(=O)N(C)Cc3cccs3)cc2)cc1,"inconclusive: 35.5 µM [inhibitor, partial curve, poor fit]"
5,Cc1ccc(OCc2nc(CCN(C)C(=O)c3ccccc3C(F)(F)F)no2)cc1C,inactive
6,COc1ccc(CN(Cc2ccc(C(=O)O)cc2)C(=S)Nc2ccc(C)cc2)cc1OC,"inconclusive: 79.4 µM [inhibitor, partial curve, poor fit]"
7,Cc1oc(-c2ccccc2Cl)nc1CN1CCCC1c1ccc(F)cc1 (configuration not stated),"inconclusive: 50.1 µM [inhibitor, partial curve, poor fit]"
8,CCc1ccc(-c2csc(/C(C#N)=C/Nc3ccccc3C(C)C)n2)cc1,"inconclusive: 0.501 µM [inhibitor, full curve, poor fit]"
9,CS(=O)(=O)N(CCc1ccccc1)CC(=O)N1CCN(c2ccccc2)CC1,"inconclusive: 89.1 µM [inhibitor, single point]"
10,CC(=O)C1C(=O)c2c(cccc2[N+](=O)[O-])C1=Nc1ccc(S(N)(=O)=O)cc1 (configuration not stated),"inconclusive: 39.8 µM [inhibitor, partial curve, poor fit]"
11,COCCCN(C(=S)Nc1c(C)cc(C)cc1C)C(C)c1ccccn1 (configuration not stated),"inconclusive: 5.62 µM [inhibitor, full curve, poor fit]"
12,Cc1cccc(OCC(O)CN2CCN(S(=O)(=O)c3ccc(C)cc3C)CC2)c1 (configuration not stated),"inconclusive: 126 µM [inhibitor, partial curve, poor fit]"
13,CSc1ncccc1C(=O)OCC(=O)NC1CCS(=O)(=O)C1 (configuration not stated),"inconclusive: 100 µM [inhibitor, partial curve, poor fit]"
14,COCC(=O)N1CCN(c2oc(-c3ccc(C)cc3)nc2S(=O)(=O)c2ccc(F)cc2)CC1,"inconclusive: 35.5 µM [inhibitor, partial curve, poor fit]"
15,COc1ccc(C2C(c3ccc(C)cc3)=C(O)C(=O)N2CCc2ccccc2)cc1 (configuration not stated),"inconclusive: 10 µM [inhibitor, full curve, poor fit]"
16,CC1(C)CC(=O)C2=C(C1)NC(=O)CC2c1cccc(F)c1 (configuration not stated),inactive
17,Cc1cccc(OC(=O)c2cncc(Br)c2)c1,inactive
18,Cc1noc(C)c1S(=O)(=O)N1CCC(C(=O)N2CCN(c3ccccc3)CC2)CC1,inactive
19,COc1ccc(NC(=O)CC2C(=O)NCCN2C(=O)c2ccccc2)cc1 (configuration not stated),"inconclusive: 63.1 µM [inhibitor, partial curve, poor fit]"
20,COc1ccc(/C=N/Nc2cc(C)nc3ccccc23)cc1,inactive
